# Measurements reported in PubChem BioAssay AID1439 (NMMLSC, 2008).
# By UniProt entry, the sequences of proteins in these tests, tags left out.
# UniProt P09471, whole entry, looked up: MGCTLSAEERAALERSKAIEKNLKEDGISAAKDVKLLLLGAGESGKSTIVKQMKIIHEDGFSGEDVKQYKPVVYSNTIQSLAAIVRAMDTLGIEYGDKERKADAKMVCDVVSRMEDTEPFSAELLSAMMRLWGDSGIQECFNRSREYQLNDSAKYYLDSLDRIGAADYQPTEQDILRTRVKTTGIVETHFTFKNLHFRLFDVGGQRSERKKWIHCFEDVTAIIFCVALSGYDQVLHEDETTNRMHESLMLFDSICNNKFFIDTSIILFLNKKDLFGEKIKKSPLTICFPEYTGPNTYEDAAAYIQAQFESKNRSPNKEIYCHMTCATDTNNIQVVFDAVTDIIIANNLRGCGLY
# Hit rate of the full screen: of about 220,000 compounds, about 770 (0.35%) were called active. The shares of active, inactive and inconclusive entries below differ from those in the screen. Cut-off read from the data, not from the text of the source: active = binding response below about 49% or above about 150%; inconclusive = no clear call, values can overlap the other calls; inactive = in between. Residues, ends and D or L forms follow the SMILES beside them. *: point of attachment. OBn = c1ccc(CO*)cc1
# Biological target: Guanine nucleotide-binding protein G(o) subunit alpha (Homo sapiens) (UniProt P09471)
# Assay: RGS7-Galphao binding modulators, primary screen, biochemical, multiplexed bead flow cytometry (AID 1439);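 note: fluorescent Galphao held in activated GDP-AlF4 state binding bead-coupled RGS7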
# Conditions: at 10 µM, actives lie on both sides
row,Compound,binding response (% of control)
1,CC(=O)NCC(=O)N[C@@H](CC(=O)OCc1ccccc1)C(=O)OCc1ccccc1 (Ac-Gly-Asp(OBn)-OBn),inconclusive: -20.5%
2,CC(C)CCN(C(=S)Nc1cccc(F)c1)C1CCN(C(C)C)CC1,inactive: 108%
3,CCSc1nnc(NC(=O)C(CC)Oc2ccccc2)s1 (stereo unspecified),inactive: 92.5%
4,CCOC(=O)C(=CNc1cccnc1Oc1ccc(C)c2c1CCC2)C(=O)OCC,inconclusive: 89.9%
5,CCOc1ccc(-c2n[nH]c(=S)o2)cc1,inconclusive: 111%
6,CC(=O)NC(CC(=O)NCCN1C(=O)S/C(=C\c2ccccc2)C1=O)c1ccccc1 (stereo unspecified),inconclusive: 66.2%
7,CCCCC1=CC2=C(c3ccco3)C(=O)C(C)(OC(=O)c3ccc(OC)cc3)C(=O)C2=CN1Cc1ccc(OC)cc1 (stereo unspecified),inconclusive: 87.7%
8,COC(=O)CSc1nnc(-c2ccccn2)n1N,inconclusive: 150%
9,COc1ccccc1-n1c(=O)[nH]c2c(C(N)=O)nc(-c3cccnc3)nc21,inconclusive: 20.8%
10,Clc1cccc(Cl)c1-c1noc(CN2CCOCC2)n1,inconclusive: 137%
11,Cc1ccnc(N2CCC(C(=O)NNC(=O)c3ccccc3C)CC2)n1,inactive: 92.2%
12,O=C(Nc1nc2ccccc2n1CCN1CCOCC1)c1ccc(COc2ccccc2Br)o1,inactive: 88.2%
13,CC(C)(C)c1cc(NCc2ccccn2)n2ncc(-c3ccc(Cl)cc3)c2n1,inconclusive: 192%
14,O=C1ON=C(c2ccccc2)/C1=C\c1ccco1,inconclusive: -37.3%
15,COc1ccccc1C(=O)N/N=C(\C)CC(=O)Nc1ccc(Cl)cn1,inconclusive: 66.7%
16,Cc1ccccc1C1NC(=S)NC2=C1C(=O)CCC2 (stereo unspecified),inactive: 110%
17,Cc1cc(C)n(CC(=O)c2cccc(N)c2)n1,inconclusive: 109%
18,COc1ccc(C(=O)COc2ccc(F)cc2)c(O)c1,inconclusive: 120%
19,CSCC(=O)Nc1ccc(F)c(Cl)c1,inconclusive: 10.6%
20,O=C(Cc1ccccc1)Nc1nnc(-c2ccco2)s1,inactive: 103%
21,Cc1nc(CSc2ccccc2)cc(=O)[nH]1,inactive: 104%
22,O=C(N/N=C/c1ccc(-c2ccc(Cl)c(C(=O)O)c2)o1)c1cc2c(ccc3ccccc32)o1,inconclusive: 77.3%
23,CCN(CC(=O)NCc1ccc(Cl)cc1)CC(=O)Nc1ccc(C(N)=O)cc1,inactive: 96.3%

row,Compound,binding response (% of control)
1,O=C(/C=C/c1ccco1)N1CCN(S(=O)(=O)c2cccs2)CC1,inconclusive: 120%
2,CCOC(=O)C1=C(C)N(c2ccccc2)C(=O)/C1=C\c1ccc(O)c(OC)c1,inconclusive: 117%
3,CCN(Cc1cc(OC)c(OC)c(OC)c1)C(=S)Nc1cccc(SC)c1,inconclusive: 134%
4,CN(C)c1nc(-c2cccnc2)nc(-c2ccc(Cl)cc2)c1C#N,inconclusive: 101%
5,CCN(CC)S(=O)(=O)c1ccc(O)c(C(=O)OCC(=O)N2c3ccccc3CC2C)c1 (stereo unspecified),inconclusive: 130%
6,Cc1ccccc1NC1C=CS(=O)(=O)C1 (stereo unspecified),inactive: 105%
7,COc1ccc2nc(SC)cc(C)c2c1,inconclusive: -157%
8,CCc1ccc(C(=O)Nc2ccc(C)c(NS(C)(=O)=O)c2)cc1,inconclusive: 110%
9,O=C1OCCC/C1=C\c1ccc2c(c1)OCO2,inconclusive: 92.2%
10,COc1ccccc1OCCNC(=O)c1cc(=O)[nH]c2ccccc12,inconclusive: 91.9%
11,COc1cc(OC)cc(C(=O)NCCSCc2ccco2)c1,inactive: 98.2%
12,Cn1cccc1/C=N\NC(=O)c1cncc(Br)c1,inconclusive: 98%
13,CCCCCCCCCCCCCCCCn1cc[n+](C)c1,inconclusive: 97.3%
14,COc1cc(OC)c(OC)cc1CN1CCN(c2ccc(F)cc2)CC1,inconclusive: 100%
15,CCN(C(=O)COC(=O)CNC(=O)c1ccc2ccccc2c1)C1CCS(=O)(=O)C1 (stereo unspecified),inconclusive: 109%
16,CCOC(=O)N1CCC(NC(=O)c2ccc(Cl)cc2)CC1,inconclusive: 114%
17,COc1ccc(/C=C2\SC(=S)N(CC(=O)OCC(=O)Nc3cc(Cl)cc(Cl)c3)C2=O)cc1,inconclusive: 116%
18,CC(C(=O)N1CCc2ccccc2C1)N1C(=O)c2ccccc2C1=O (stereo unspecified),inconclusive: 66%
19,Cc1ccc(CN2C(=O)N/C(=C\c3ccc(-c4ccc(C(=O)O)cc4C)o3)C2=O)cc1,inconclusive: -452%
20,COc1ccc(C2c3c(ncn(CCCO)c3=N)Oc3ccc4ccccc4c32)cc1 (stereo unspecified),inconclusive: 148%
21,Cn1c(=O)c2c(O)c(C=Nc3ccc(F)cc3)c(=O)n(C)c2n(C)c1=O,inconclusive: 112%
22,COCCN(C(=O)CSc1nnc(-c2ccccc2C)n1C)c1c(N)n(Cc2ccccc2)c(=O)[nH]c1=O,inactive: 94.7%
23,OC(CNCCc1ccccc1)COc1ccc(OCC(O)CNCCc2ccccc2)cc1 (stereo unspecified),inconclusive: 144%

# An excerpt from above in order of number of heavy atoms, descending:
row,Compound,binding response (% of control)
2,CCOC(=O)C1=C(C)N(c2ccccc2)C(=O)/C1=C\c1ccc(O)c(OC)c1,inconclusive: 117%
4,CN(C)c1nc(-c2cccnc2)nc(-c2ccc(Cl)cc2)c1C#N,inconclusive: 101%
8,CCc1ccc(C(=O)Nc2ccc(C)c(NS(C)(=O)=O)c2)cc1,inconclusive: 110%
